PubChem BioAssay AID1487 (National Center for Advancing Translational Sciences (NCATS), 2009)
Several values for one entry are separate records, joined by “and”; a condition that tells them apart may be missing. Identical values can stand only once. The list shows a part of the results. The main result of the screen is listed elsewhere. These columns were measured beside it and carry no call. The list favours compounds with an active or inconclusive main result. Words in brackets tell the shape of the fitted curve; partial curves, single points and poor fits give uncertain potencies.

Assay: qHTS Assay for Modulators of Lamin A Splicing
Details: HeLa LMNA splicing GFP/RFP minigene ratio, 48 h
Outline: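 S3 HeLa stable clones carrying a lamin A-EGFP splicing minigene plus DsRed2 were seeded at 600 cells/well in Opti-MEM with 2% FBS, pin-dosed and incubated 48 h at 37°C. Acumen cytometry (488 nm) gave the GFP/RFP total-intensity ratio.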

[1] = measured here: GFP splicing reporter channel
[2] = measured here: RFP viability control channel

Row | SMILES | AC50 [1] | AC50 [2]
1 | Cc1c(Cc2ccc3c(c2)OCO3)sc(NC(=O)c2ccc3ccccc3c2)c1C(N)=O | 0.00447 µM [falling, full curve, poor fit] | –
2 | CCN(c1cccc(C(F)(F)F)c1)S(=O)(=O)c1ccc2c(c1)CCN2C(=O)C1CC1 | – | 11.2 µM [rising, partial curve, poor fit]
3 | O=C(CC1CC2CCC1C2)OCC(=O)c1c[nH]c2ccccc12 (stereo unspecified) | 17.8 µM [falling, single point] | 25.1 µM [falling, single point]
4 | CC(=O)Nc1cc(-c2nc3cc(Cl)ccc3o2)ccc1C | – | 0.02 µM [falling, full curve, poor fit]
5 | CCSc1nnc(NC(=O)CSc2nnc(C)c(=O)n2N)s1 | – | 0.0141 µM [falling, full curve]
6 | CC/C(=N\Nc1ccc([N+](=O)[O-])cc1)c1ccccc1 | 28.2 µM [falling, single point] | –
7 | Cc1nc2sc3c(c2c(=N)n1N)CCCC3 | – | 0.794 µM [falling, single point]
8 | O=C(O)CCc1ccc(S(=O)(=O)N2CCOCC2)cc1 | 5.62 µM [falling, single point] | 5.62 µM [falling, single point]
9 | Cc1ccc2nc(NC(=O)C3CCN(S(=O)(=O)c4cccc5nsnc45)CC3)sc2c1 | – | 12.6 µM [rising, partial curve]
10 | O=c1cc2c(nn1Cc1ccc(Cl)cc1Cl)-c1ccccc1CC2 | – | 28.2 µM [rising, single point]
11 | O=C(O)c1ccccc1C(=O)c1ccc2c(c1)N(Cc1ccc(Cl)c(Cl)c1)C(=O)CO2 | 35.5 µM [rising, single point] | 35.5 µM [rising, partial curve]
12 | Cc1ccc(-c2cc(C(=O)N3CCCc4ccccc43)c3ccccc3n2)cc1 | – | 20 µM [rising, single point]
13 | CS(=O)(=O)c1ccc([C@H](O)[C@H](CO)NC(=O)C(Cl)Cl)cc1 | 0.282 µM [falling, partial curve, poor fit] | 0.251 µM [falling, full curve]
14 | CC1(C)CC(=O)c2c(O)cc(OCc3ccc(Br)cc3)cc2O1 | – | 14.1 µM [rising, single point]
15 | CN(CC(=O)NCc1ccc(Cl)cc1)S(=O)(=O)c1ccc2[nH]c3c(c2c1)CCCC3 | – | 35.5 µM [rising, partial curve]
16 | O=c1[nH]cnc2c1ncn2C1OC(CO)C(O)C1O (stereo unspecified) | 31.6 µM [rising, single point] | –
17 | COc1ccccc1CNC(=O)CCC1N=C2c3ccccc3N=C(SCC(=O)Nc3ccc(F)cc3)N2C1=O (stereo unspecified) | – | 0.0398 µM [falling, full curve, poor fit]
18 | CCn1c(SCc2ccccc2C)nc(=O)c2c(C(=O)OC)cc(C3CC3)nc21 | 11.2 µM [falling, partial curve, poor fit] | 8.91 µM [falling, partial curve, poor fit]
19 | Cc1cccn2c(=O)c3cc(C(=O)NCc4cccnc4)c(=N)n(C(C)C)c3nc12 | – | 10 µM [rising, partial curve, poor fit]
20 | O=C(Nc1nnc(-c2cc(Cl)ccc2Cl)o1)c1ccc2c(c1)OCCO2 | – | 10 µM [rising, partial curve, poor fit]
21 | COc1ccc(-c2nc(Cn3c(SCc4cccc(F)c4)nc4ccncc43)c(C)o2)cc1OC | – | 1.78 µM [rising, partial curve, poor fit]
22 | Cc1cccc(NC(=S)N(Cc2cccc(Br)c2)CC2CCC(C(=O)O)CC2)c1 (stereo unspecified) | 2.24 µM [rising, partial curve, poor fit] | –
23 | CCOC(=O)C1CCC(CN(Cc2ccc(OC)cc2)S(=O)(=O)c2ccc(F)c(C(=O)Nc3ccc(C)c(C)c3)c2)CC1 (stereo unspecified) | 0.355 µM [falling, full curve, poor fit] | –
24 | CCCCOc1ccc(C(=O)NNC(=S)NC(=O)CC)cc1 | – | 5.01 µM [rising, partial curve]
25 | FC(F)(F)c1nnc(-c2ccccc2)nc1Sc1ccccc1 | 12.6 µM [falling, single point] | 15.8 µM [falling, partial curve]

Row | SMILES | AC50 [1] | AC50 [2]
26 | Cn1nc(-c2ccccn2)nc2c(=O)n(C)c(=O)nc1-2 | – | 4.47 µM [falling, full curve]
27 | O=c1nc2n(c3sc4c(c13)CCCC4)C(CBr)CS2 (stereo unspecified) | 10 µM [rising, partial curve, poor fit] | 11.2 µM [rising, single point]
28 | CCNc1ccc(S(=O)(=O)N(C)C)cc1[N+](=O)[O-] | – | 1.26 µM [falling, full curve, poor fit]
29 | CNc1ccc(Br)cc(C(=O)/C=C/c2ccc(OC)cc2OC)c1=O | 10 µM [rising, single point] | –
30 | O=C(Cc1cccs1)NC1C(=O)N2C(C(=O)[O-])=C(C[n+]3ccccc3)CSC12 (stereo unspecified) | 4.47 µM [rising, partial curve, poor fit] | 8.91 µM [rising, single point]
31 | CN(Cc1cnc2nc(N)nc(N)c2n1)c1ccc(C(=O)N[C@@H](CCC(=O)O)C(=O)O)cc1 | 0.00447 µM [falling, full curve, poor fit] | 4.47 nM [rising, full curve, poor fit] and 28.2 nM [rising, full curve, poor fit]
32 | CCc1ccccc1NC(=O)c1cc(S(=O)(=O)N2CCc3ccccc32)ccc1F | 0.00631 µM [falling, full curve, poor fit] | 0.00501 µM [falling, full curve, poor fit]
33 | CCCn1c2ccccc2c2cnn(CC(=O)NCC3CCN(Cc4ccc(F)cc4)CC3)c(=O)c21 | 35.5 µM [falling, partial curve] | –
34 | COc1cc(C2C(C#N)=C(N)Oc3cc(C)n(CCN4CCOCC4)c(=O)c32)cc(OC)c1OC (stereo unspecified) | 35.5 µM [rising, partial curve, poor fit] | 0.282 µM [rising, partial curve, poor fit]
35 | CCOC(=O)/C=C/C(=O)Nc1cccc([N+](=O)[O-])c1 | 22.4 µM [falling, partial curve, poor fit] | –
36 | CCOC(=O)N1CCN(S(=O)(=O)c2ccc(C(=O)NNc3nc4cc(C)cc(C)c4s3)cc2)CC1 | 17.8 µM [falling, single point] | 3.98 µM [rising, full curve]
37 | COc1ccc(NC(=S)Nc2cc(-c3ccccc3)[nH]n2)cc1Cl | – | 11.2 µM [rising, partial curve, poor fit]
38 | N[C@@H](Cc1ccc(O)cc1)C(=O)O | 0.0794 µM [falling, partial curve, poor fit] | 0.000794 µM [rising, full curve, poor fit]
39 | O=C(COc1ccc(Cl)cc1)N1CCN(Cc2ccc3c(c2)OCO3)CC1 | 10 µM [falling, partial curve, poor fit] | 10 µM [falling, single point]
40 | CC(=O)N1CCc2cc(S(=O)(=O)NCCC(=O)N3CCN(Cc4ccccc4)CC3)ccc21 | 10 µM [rising, partial curve] | 15.8 µM [rising, partial curve]
41 | COCCN(C(=O)CCCC(=O)Nc1ccccn1)C(C(=O)NC1CCCC1)c1ccc(C)cc1 (stereo unspecified) | 35.5 µM [rising, single point] | –
42 | CCc1cc2c(C)ccc(C)c2nc1SCC(=O)Nc1c[nH]c(=O)[nH]c1=O | 35.5 µM [falling, single point] | 35.5 µM [falling, single point]
43 | CCN(CC)CCNc1ccc(CO)c2sc3ccccc3c(=O)c12 | 11.2 nM [falling, full curve, poor fit] and 35.5 µM [falling, partial curve, poor fit] | 8.91 nM [falling, full curve, poor fit] and 11.2 µM [rising, partial curve]
44 | CCOc1ccccc1NC(C)C(=O)Nc1cc(C(F)(F)F)ccc1N1CCOCC1 (stereo unspecified) | 35.5 µM [rising, single point] | 35.5 µM [rising, single point]
45 | Cc1ccc(F)cc1NC(=O)CCc1c(C)nn(-c2ccc(N3CCOCC3)nn2)c1C | – | 0.891 µM [falling, full curve, poor fit]
46 | C/C(=N\NC(=O)c1cccs1)c1cccnc1 | 1.26 µM [falling, single point] | 0.891 µM [falling, partial curve]
47 | CN1C(=O)C(CC(=O)Nc2ccc(F)cc2)N(Cc2cccs2)C1=S (stereo unspecified) | 35.5 µM [falling, partial curve, poor fit] | 0.891 µM [falling, full curve, poor fit]
48 | COc1ccc(C)cc1NC(=O)CCc1c(C)nn(-c2ccc(N3CCCCC3)nn2)c1C | 5.01 µM [falling, partial curve, poor fit] | 0.282 µM [falling, full curve, poor fit]
49 | N#Cc1nc(-c2ccc(OCc3ccccc3)cc2)oc1NCCCn1ccnc1 | 20 µM [rising, single point] | –
50 | Cc1ccc(S(=O)(=O)N(C)CC(O)Cn2c3ccccc3c3ccccc32)cc1 (stereo unspecified) | – | 35.5 µM [rising, single point]
